Assay results taken from the supplement of paper PMC3334620.
Over roughly 33,000 sequences, “E-score (-0.5 to 0.5)” has its median near -0.0034; the highest 2% begin near 0.25. The list shows a part of the results.

Target: T1, Yap3 (UniProt P38749)
T1 sequence: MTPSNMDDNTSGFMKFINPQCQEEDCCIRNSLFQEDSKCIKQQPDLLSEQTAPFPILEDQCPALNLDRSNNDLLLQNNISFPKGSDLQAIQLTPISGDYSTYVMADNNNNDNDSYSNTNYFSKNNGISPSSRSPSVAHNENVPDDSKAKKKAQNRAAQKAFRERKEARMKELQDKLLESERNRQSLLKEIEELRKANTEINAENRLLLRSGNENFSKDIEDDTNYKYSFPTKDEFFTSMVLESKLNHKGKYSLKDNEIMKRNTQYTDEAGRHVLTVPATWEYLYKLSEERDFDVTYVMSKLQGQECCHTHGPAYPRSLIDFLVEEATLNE
Experiment: PBM E-score (8-mer binding enrichment) (E-score (-0.5 to 0.5)); higher = stronger / more preferred TF binding
Conditions: protein concentration: 100 nM; construct: GST-full length
Method in brief: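 Masliner-normalised scans of fluorescent anti-GST signal were the basis for scoring. That signal came from GST-tagged yeast transcription factors applied at about 100-200 nM to double-stranded universal all-10-mer Agilent arrays on fresh or once-stripped slides. Each ungapped eight-base word, pooled with its reverse complement, received an E-score from the Universal PBM Analysis Suite.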

Sequence | PBM E-score
CTTATCGC | -0.0461
TGGCACCA | -0.233
GACCGCAC | -0.108
AGCGCGAT | 0.103
GCAGTCCA | -0.0876
ATTGTGGG | -0.00325
ATTCTGCA | 0.191
ATCTGGGC | -0.18
GCTCCGAC | -0.0921
CCAAACCG | -0.00088
GTCAAGAC | -0.264
ACCTAAAG | -0.028
AGACGTTC | 0.0209
ATGCGCCA | 0.00516
AACTCTAC | -0.125
ACAAGTAG | -0.0752
AGGGAGAA | -0.212
CAACCAAA | 0.118
CCTCTTAA | 0.0653
CATTGCTA | 0.117
CCACTACA | 0.001
AGTAAGCC | -0.00081
CCAATTCG | 0.0968
AAGGTCTG | -0.0756
ATTTCGCA | 0.17

Sequence | PBM E-score
CCCAAAGG | -0.2
CTCACATC | 0.0384
CGTAAGTA | 0.13
AGATAAGC | -0.0117
TCCTTTCA | 0.062
AGTAAAGC | 0.0886
CATATATA | 0.227
GAGCTACA | -0.202
AGGGACCC | -0.244
CGCCGTTC | 0.00858
CCTGAGAC | -0.185
ACGATCGG | 0.103
AGACAATG | 0.0142
AACCGCCG | 0.00187
AACAGGAC | -0.0617
GATAATGA | 0.213
GACCCATA | 0.00299
AACCGTTA | -0.0804
GTGCAATA | 0.0948
AAATGCGC | 0.136
ACTCACGC | -0.112
GGTCATCA | -0.00149
CATCGTAA | 0.0529
ACTCTATA | 0.0769
AAGAAAGT | 0.233

Sequence | PBM E-score
AGGTGTCC | -0.0437
GCCGATTA | 0.0944
GCGTCAGA | -0.0584
AACTACTA | 0.244
ACATCACA | 0.083
CCTACTAC | -0.17
CCAGGCCC | -0.235
ATTGCCCC | 0.158
ATCCCAAA | 0.0661
TCAATCGA | 0.112
ACGTAGTG | 0.0166
AGACGCCT | -0.138
GATTACCA | 0.153
CATTAGGG | -0.0667
AAAGTAGT | 0.0701
CAGAGTGG | -0.129
AGAAACAG | 0.106
AGGCCAGG | -0.144
AAGACGCC | -0.0305
CTAATATA | 0.235
ATCAAAAG | 0.122
CCTCGTAC | 0.00719
AACTTTTA | 0.113
CCTAGGTC | -0.038
ATGAGTAC | 0.0895

Sequence | PBM E-score
GGCCTACC | -0.057
GCCGTGCA | -0.0679
TAACTGGA | -0.0224
GGAACCCC | -0.141
CTGACAAG | 0.154
GCTTTACC | 0.038
CCTCAAAA | 0.0175
CTGTCAAG | -0.179
ACACACGG | -0.233
GCGCACCC | -0.174
GCCTGAAA | 0.0756
CAACGCAG | -0.195
ATGCTGAG | -0.202
GAATAACC | 0.022
AACCGACC | 0.0586
GACGCTCC | -0.149
CATGCTAA | 0.0237
GAACGTGA | 0.0804
GCCTCGTA | 0.141
ACCCTTTC | -0.0194
ACAGACGC | -0.168
CACCTGCA | -0.121
GTAGCCGA | -0.114
CACGTCTC | -0.149
ATAAACCG | 0.122

Some values from above:
For PBM E-score, ACGTAGTG reads 0.0166
For PBM E-score, CCTACTAC reads -0.17
For PBM E-score, AGACGCCT reads -0.138
For PBM E-score, AGGTGTCC reads -0.0437
For PBM E-score, GCCGTGCA reads -0.0679
For PBM E-score, CTGACAAG reads 0.154
For PBM E-score, ATGAGTAC reads 0.0895

Going on with the list.

Sequence | PBM E-score
CTAATGCA | 0.0852
CGTCGGAG | -0.0637
GGGCGCCC | -0.218
CCGCTGAC | -0.0647
AGTGAAAA | 0.0751
ACCTAGGT | -0.0918
CCCGCACG | -0.0849
ACTAGACT | -0.167
AGTGTCAA | 0.0121
ACGGTGCC | -0.249
ACAAAGTC | -0.01
CAGATATC | -0.00255
CGGGACCG | -0.156
GTATCGCA | -0.024
GAATCACC | 0.0519
ATGAGCAT | 0.164
CCGCCTGA | -0.0912
AATAAGCC | 0.0794
CGCAGTTA | 0.0484
ACTGGTCT | -0.158
TAAGACGA | 0.0274
ATGAGAAA | 0.181
AGCGATGA | 0.108
CAGGTTTA | 0.0534
AATCCGAT | 0.142

Sequence | PBM E-score
GCAAACTA | 0.15
CAGAAACA | 0.139
AGCGGTTC | -0.0274
ACACCTAA | 0.0904
ACGGAATG | -0.00455
GGACTGAA | 0.0634
CCAGTGTC | -0.1
ATCAAGCC | 0.0575
AAAGTGGT | 0.064
ACACATAC | 0.0464
TCATAAAA | 0.128
AAGCCCTC | -0.227
CCGCGGGC | -0.0372
CTAAATGA | -0.0077
ACTTGAAG | -0.0435
CGTGCCGC | -0.0418
ACACTGAG | -0.0767
ATTCATCG | 0.0672
ATCTCTGA | -0.0337
CCTAACCG | -0.149
GCTCTTCC | -0.222
AAACCGAC | 0.117
CAAAACGG | 0.0777
CTCGAGCA | 0.0514
ACAAGTGC | -0.182

Part of the list above, with each value named.
AGCGGTTC
  PBM E-score = -0.0274
ATCAAGCC
  PBM E-score = 0.0575
AAGCCCTC
  PBM E-score = -0.227
CGTGCCGC
  PBM E-score = -0.0418

(continued)

Sequence | PBM E-score
CGGCCTTA | -0.0179
AGAATCAT | 0.076
CTTCATCC | 0.027
ACGGGGAA | -0.0267
AAACCAGA | -0.0162
ACAGATGA | 0.0243
AACACCCT | -0.182
GCGTGGCC | -0.3
ATTGGTAA | 0.304
AGCGATGC | -0.204
CAAAAGCA | -0.00282
AGCGAAGC | -0.215
GTGAAAAC | -0.0189
CATCACCC | -0.123
GGAGCAAC | -0.104
ACAGCGCT | -0.0874
AAGTTGAC | -0.0409
GAACCGAA | 0.0199
GGGAAACC | 0.0323
AAATCCGG | 0.0821
CCGAGACC | -0.123
GTACTATA | 0.194
